Results are given in words; binding and its absence hold for the method and conditions named. Binding seen in cells or lysates may run through a third protein. These calls come from enrichment with a bait or labelling near it, and not all partners need be listed.
Target: huntingtin (HTT) (human (endogenous in SH-SY5Y)) (UniProt P42858)
Test: affinity purification with mass spectrometry

Amino acid sequences for entries named in this document (tags omitted).
UniProt P42858: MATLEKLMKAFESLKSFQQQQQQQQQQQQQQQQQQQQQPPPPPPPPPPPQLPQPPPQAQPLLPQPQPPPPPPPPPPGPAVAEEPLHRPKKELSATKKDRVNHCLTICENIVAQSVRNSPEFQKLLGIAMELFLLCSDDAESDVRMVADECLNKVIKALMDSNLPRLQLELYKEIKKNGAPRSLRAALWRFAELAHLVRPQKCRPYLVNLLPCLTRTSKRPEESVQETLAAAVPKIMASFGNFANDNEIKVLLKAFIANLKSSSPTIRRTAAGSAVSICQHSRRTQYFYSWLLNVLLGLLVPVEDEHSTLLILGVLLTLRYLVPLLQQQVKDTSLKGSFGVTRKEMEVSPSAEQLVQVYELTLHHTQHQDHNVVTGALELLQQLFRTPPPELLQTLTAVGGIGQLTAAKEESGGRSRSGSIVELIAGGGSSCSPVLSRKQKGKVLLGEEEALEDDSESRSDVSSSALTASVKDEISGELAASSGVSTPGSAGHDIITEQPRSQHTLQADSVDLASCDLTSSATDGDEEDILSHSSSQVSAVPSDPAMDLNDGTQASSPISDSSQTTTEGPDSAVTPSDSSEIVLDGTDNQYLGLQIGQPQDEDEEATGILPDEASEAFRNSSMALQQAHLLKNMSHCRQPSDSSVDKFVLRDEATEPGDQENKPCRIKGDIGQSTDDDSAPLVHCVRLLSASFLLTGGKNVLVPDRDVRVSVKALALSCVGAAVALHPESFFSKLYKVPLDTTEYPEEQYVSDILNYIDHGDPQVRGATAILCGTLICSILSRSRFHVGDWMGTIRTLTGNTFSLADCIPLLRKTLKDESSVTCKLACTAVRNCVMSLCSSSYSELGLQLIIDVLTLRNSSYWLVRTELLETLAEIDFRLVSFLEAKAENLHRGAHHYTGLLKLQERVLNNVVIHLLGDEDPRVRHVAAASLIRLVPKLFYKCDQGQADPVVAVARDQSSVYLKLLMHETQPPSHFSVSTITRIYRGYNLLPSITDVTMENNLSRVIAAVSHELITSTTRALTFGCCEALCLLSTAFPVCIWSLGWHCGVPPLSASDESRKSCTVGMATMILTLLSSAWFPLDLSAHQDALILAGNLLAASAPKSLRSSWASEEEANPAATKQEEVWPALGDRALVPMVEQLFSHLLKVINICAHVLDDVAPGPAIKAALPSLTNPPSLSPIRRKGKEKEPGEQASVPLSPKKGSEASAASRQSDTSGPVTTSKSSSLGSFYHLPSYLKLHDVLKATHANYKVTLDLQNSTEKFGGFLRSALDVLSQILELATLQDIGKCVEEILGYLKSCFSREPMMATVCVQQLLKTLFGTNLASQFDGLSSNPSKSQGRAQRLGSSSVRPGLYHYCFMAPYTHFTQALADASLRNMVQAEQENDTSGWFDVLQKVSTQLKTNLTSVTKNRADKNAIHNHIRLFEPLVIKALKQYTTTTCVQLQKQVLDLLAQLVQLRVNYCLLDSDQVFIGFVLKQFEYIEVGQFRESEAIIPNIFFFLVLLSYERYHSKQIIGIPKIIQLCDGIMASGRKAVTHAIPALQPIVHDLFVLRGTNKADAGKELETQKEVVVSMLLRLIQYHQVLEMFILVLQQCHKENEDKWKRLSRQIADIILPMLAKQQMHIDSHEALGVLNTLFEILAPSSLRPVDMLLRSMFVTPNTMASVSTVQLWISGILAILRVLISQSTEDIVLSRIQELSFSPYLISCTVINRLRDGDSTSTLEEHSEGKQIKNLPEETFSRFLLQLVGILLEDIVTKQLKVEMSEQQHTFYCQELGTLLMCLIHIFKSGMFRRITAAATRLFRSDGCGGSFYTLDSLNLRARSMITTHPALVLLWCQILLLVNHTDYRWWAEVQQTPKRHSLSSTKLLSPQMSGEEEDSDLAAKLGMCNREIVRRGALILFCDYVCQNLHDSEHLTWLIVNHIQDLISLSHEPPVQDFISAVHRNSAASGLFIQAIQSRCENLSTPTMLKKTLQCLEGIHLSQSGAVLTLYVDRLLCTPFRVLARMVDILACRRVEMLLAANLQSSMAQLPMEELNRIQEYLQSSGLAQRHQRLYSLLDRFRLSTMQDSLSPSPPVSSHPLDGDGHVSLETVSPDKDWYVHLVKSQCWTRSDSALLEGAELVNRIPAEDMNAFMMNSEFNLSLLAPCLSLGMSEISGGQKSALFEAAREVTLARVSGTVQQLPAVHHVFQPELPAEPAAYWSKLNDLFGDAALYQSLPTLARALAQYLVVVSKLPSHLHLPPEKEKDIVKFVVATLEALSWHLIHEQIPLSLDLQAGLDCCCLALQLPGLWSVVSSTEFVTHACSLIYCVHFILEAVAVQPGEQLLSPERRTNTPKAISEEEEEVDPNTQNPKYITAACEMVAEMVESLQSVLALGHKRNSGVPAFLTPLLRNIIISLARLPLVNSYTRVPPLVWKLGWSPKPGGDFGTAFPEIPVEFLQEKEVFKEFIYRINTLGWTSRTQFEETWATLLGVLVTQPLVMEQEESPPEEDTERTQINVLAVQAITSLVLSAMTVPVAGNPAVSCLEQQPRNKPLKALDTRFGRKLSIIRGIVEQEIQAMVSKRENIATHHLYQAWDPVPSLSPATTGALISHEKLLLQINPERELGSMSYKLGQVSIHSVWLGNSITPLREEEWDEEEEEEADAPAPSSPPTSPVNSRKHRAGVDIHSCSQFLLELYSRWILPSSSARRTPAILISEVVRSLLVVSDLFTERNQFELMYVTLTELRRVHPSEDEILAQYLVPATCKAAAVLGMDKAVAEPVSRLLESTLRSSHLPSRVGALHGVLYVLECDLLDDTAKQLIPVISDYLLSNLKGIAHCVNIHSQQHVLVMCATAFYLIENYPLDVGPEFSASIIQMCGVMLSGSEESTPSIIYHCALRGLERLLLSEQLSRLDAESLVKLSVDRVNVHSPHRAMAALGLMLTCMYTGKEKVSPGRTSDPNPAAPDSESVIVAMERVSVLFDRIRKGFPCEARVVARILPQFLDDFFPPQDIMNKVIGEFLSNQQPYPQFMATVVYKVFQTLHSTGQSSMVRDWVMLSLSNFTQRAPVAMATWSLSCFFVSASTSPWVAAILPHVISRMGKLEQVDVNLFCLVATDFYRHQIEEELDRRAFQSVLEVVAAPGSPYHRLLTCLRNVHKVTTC
UniProt P13010: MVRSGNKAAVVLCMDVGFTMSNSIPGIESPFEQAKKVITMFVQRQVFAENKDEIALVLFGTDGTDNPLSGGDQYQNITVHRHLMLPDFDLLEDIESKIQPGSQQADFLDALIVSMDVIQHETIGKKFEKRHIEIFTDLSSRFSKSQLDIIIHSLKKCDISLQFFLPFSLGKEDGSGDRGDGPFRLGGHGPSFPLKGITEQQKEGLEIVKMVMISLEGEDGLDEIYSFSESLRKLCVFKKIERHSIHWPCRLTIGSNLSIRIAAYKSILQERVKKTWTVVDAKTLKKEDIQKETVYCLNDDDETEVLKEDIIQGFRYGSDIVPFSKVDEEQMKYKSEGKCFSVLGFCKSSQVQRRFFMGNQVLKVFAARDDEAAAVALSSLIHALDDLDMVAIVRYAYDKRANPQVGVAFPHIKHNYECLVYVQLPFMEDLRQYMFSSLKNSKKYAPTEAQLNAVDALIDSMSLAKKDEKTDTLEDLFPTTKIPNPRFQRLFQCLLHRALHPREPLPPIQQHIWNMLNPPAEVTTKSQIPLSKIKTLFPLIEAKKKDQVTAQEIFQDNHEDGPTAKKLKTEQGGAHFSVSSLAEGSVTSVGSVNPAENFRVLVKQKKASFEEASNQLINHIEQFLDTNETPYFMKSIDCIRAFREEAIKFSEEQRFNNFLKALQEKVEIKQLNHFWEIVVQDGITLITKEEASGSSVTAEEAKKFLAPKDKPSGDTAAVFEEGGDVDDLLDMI
UniProt Q12888: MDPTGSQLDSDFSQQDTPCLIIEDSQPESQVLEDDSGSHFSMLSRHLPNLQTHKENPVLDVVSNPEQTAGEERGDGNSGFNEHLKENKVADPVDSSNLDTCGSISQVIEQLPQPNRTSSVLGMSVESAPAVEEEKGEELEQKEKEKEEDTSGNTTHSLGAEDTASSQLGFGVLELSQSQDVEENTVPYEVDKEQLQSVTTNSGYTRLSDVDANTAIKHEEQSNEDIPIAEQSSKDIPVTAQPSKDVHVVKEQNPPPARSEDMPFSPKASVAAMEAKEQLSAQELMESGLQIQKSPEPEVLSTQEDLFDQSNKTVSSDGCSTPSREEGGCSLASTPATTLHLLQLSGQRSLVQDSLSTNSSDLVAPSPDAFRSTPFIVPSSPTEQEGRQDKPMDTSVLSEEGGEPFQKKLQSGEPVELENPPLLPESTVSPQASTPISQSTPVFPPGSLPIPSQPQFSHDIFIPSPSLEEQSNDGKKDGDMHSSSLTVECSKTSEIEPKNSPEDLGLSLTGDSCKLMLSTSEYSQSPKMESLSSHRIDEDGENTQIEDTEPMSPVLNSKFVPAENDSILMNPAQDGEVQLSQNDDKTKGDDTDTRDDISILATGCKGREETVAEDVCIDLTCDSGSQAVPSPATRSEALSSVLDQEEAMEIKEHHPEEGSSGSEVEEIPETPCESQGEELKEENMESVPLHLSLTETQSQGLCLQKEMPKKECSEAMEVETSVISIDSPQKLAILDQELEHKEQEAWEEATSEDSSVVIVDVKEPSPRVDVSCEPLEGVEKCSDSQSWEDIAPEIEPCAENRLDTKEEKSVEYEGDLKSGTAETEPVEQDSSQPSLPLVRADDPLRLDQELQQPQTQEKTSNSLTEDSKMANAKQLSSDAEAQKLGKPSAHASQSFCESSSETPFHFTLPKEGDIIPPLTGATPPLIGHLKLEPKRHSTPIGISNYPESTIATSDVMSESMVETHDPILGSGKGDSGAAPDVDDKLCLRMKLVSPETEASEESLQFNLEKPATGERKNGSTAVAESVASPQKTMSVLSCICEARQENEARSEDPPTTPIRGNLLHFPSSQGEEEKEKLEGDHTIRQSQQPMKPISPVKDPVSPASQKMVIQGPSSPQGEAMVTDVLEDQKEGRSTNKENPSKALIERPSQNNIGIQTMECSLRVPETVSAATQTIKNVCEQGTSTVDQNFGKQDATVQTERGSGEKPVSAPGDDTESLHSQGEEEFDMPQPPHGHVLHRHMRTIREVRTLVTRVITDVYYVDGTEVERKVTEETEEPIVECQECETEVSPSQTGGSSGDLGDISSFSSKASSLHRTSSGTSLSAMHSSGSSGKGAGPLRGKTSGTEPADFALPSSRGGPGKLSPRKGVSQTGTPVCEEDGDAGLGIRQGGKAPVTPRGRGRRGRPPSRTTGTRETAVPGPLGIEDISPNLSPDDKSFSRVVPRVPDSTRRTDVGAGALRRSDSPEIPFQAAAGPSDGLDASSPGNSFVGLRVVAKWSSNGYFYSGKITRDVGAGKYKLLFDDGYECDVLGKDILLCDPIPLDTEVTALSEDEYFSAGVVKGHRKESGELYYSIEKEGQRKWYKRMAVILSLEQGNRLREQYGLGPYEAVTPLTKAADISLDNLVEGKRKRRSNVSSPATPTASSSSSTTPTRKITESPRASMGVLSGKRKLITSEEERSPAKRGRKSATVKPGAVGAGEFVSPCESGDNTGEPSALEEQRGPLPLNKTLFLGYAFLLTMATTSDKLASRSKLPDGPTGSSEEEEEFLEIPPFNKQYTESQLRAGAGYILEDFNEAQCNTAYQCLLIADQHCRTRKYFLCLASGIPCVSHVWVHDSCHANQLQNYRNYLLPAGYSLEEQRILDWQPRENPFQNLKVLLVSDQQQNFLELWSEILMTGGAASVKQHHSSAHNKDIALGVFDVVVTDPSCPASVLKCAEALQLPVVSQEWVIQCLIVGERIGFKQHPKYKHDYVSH

binding, binds:
PNKP (polynucleotide kinase 3'-phosphatase) (from UniProt Q96T60 1-521) (enzyme)
XRCC4 (from UniProt Q13426 1-336)
RAD50 (from UniProt Q92878 1-1312)
Ku80 (XRCC5) (from UniProt P13010 1-732)
Ku70 (XRCC6) (from UniProt P12956 1-609)
53BP1 (p53-binding protein 1) (from UniProt Q12888 1-1972)

— article doi:10.1101/2024.09.19.613927
